# Test results taken from PubChem BioAssay AID529 (NMMLSC, 2006).
# The chains behind the UniProt entries cited, without tags or fusion partners.
# UniProt P13612, whole entry, looked up: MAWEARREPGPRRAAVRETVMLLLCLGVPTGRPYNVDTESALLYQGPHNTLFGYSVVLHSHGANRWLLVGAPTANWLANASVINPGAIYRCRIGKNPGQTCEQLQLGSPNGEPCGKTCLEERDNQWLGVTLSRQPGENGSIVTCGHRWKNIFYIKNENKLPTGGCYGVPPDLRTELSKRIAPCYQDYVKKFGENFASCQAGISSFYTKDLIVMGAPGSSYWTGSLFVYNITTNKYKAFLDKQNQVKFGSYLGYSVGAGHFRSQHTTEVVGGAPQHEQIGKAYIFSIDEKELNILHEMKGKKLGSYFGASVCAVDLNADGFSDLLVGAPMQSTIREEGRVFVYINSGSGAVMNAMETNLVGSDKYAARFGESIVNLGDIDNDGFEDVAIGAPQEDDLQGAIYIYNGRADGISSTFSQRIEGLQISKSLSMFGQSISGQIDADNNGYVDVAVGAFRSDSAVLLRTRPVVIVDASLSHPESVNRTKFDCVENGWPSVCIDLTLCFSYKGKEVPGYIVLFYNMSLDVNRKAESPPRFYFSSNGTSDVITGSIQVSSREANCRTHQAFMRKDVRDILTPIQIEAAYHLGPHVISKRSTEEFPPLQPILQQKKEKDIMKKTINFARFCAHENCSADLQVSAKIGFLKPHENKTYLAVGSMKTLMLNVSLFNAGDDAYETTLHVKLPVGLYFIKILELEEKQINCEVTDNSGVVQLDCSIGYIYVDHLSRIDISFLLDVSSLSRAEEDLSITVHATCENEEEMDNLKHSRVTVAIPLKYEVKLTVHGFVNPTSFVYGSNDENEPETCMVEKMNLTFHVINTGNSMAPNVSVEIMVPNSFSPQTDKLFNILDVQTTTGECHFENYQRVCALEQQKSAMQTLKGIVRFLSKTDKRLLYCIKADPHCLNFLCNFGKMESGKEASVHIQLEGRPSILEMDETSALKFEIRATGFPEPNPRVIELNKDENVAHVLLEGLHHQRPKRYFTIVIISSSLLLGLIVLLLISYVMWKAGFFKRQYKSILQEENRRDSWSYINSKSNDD
# In all, about 24,000 compounds went through this assay and about 50 (0.2%) were called active. The inconclusive results got no clear call from the source; some entries with a clear call stand among them for comparison.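 How the source made its calls: active means inhibition above 50%; inconclusive means compound itself fluorescent, judged against control cell fluorescence; inactive means the rest.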
# Target: Integrin alpha-4 (Homo sapiens) (UniProt P13612)
# Assay: blockers of LDV-FITC ligand binding on VLA-4 – Jurkat cells, Mn2+ activated, primary screen (AID 529);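 on inhibition: 0% = Mn2+ stimulated cells lacking compound and 100% = ligand binding without Mn2+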
# Settings: LDV-FITC binding with Mn2+, flow cytometry; stronger effect = higher value, screened at 10 µM (by protocol), 100% = Mn2+-driven binding gain fully reversed unless noted
row,Structure (SMILES),inhibition
1,O=C(CCCCCN1C(=O)c2ccccc2C1=O)Nc1ccc(S(=O)(=O)N2CCCCC2)cc1,inconclusive
2,COc1ccc(S(=O)(=O)N2CCCN(CC(=O)Nc3cc(NC(C)=O)ccc3OC)CC2)cc1,inconclusive
3,COc1cc(NC(=O)C2CCCN(S(=O)(=O)c3cnc[nH]3)C2)cc(OC)c1 (stereo not given),inconclusive
4,Cc1cccc(CCNC(=O)C2CCCN(S(=O)(=O)c3cccc4nsnc34)C2)c1 (stereo not given),inconclusive
5,COC(=O)c1c[nH]n2c(=O)c(Cc3ccc(F)cc3Cl)c(C)nc12,inconclusive
6,Cc1ccc(C)c(NC(=O)CSc2nnc(Cc3cccn3C)n2-c2ccc(F)cc2)c1,"inactive: 10% [stronger effect = higher value, 100% = Mn2+-driven binding gain fully reversed, screened at 10 µM (by protocol)]"
7,CCOC(=O)c1cccc(NC(=O)CCS(=O)(=O)c2cccs2)c1,inconclusive
8,Cc1nc2sc(C(c3ccco3)N3CC(C)OC(C)C3)c(O)n2n1 (stereo not given),inconclusive
9,CCOC(=O)C1CCCN(C(=O)C2CCCN(S(C)(=O)=O)C2)C1 (stereo not given),inactive: -40%
10,Cc1oc(-c2ccc(Cl)cc2)nc1CN1CCC(C(=O)NCc2cccnc2)CC1,inactive: 2%
11,COC(=O)Cn1c2c(c3cc(C)ccc31)CCCC2,inactive: -29%
12,CCOC(=O)c1ccc(Oc2nc(NC(C)(C)C)nc(N(C)C)n2)cc1,inconclusive
13,O=C1Nc2ccccc2C(O)(C(=O)NCc2ccco2)N1c1ccc(Cl)c(Cl)c1 (stereo not given),inconclusive
14,O=C(Nc1ccc2c(c1)OCO2)C(c1ccccc1)N1CCC2(CC1)OCCO2 (stereo not given),inconclusive
15,Cc1ccc(Cl)cc1N1CCN(C(=O)Cn2ccc3ccccc3c2=O)CC1,inconclusive
16,Cc1nc2sc(C(c3ccccc3)N3CCC(O)CC3)c(O)n2n1 (stereo not given),inconclusive
17,COc1cccc(CN=CC2=C(O)CC(C)(C)CC2=O)c1OC,inconclusive
18,CCOc1cc(C2C(C(=O)O)c3cc(OCC)c(OCC)cc3C(=O)N2C)ccc1O (stereo not given),inconclusive
19,Cc1cccc(OCCn2c(=O)n(C)c3ccccc32)c1,inconclusive
20,O=c1[nH]c2ccsc2c(=O)n1-c1ccc(F)c(Cl)c1,inconclusive
21,COc1ccccc1/C=c1\sc2nc(-c3ccco3)nn2c1=O,inactive: -10%
22,Cc1noc(C)c1S(=O)(=O)N(CC(=O)NCc1ccc2c(c1)OCO2)c1ccc(C(C)C)cc1,inconclusive
23,Cc1ccc(CN2CCSc3ccc(C(=O)N4CCN(c5ncccn5)CC4)cc32)cc1,inactive: 5%
24,COc1ccc(OC)c(NC(=O)C2CCC(CNc3c(N4CCC(C)CC4)c(=O)c3=O)CC2)c1 (stereo not given),inconclusive
25,CCCOc1ccc2oc(=O)c3c(c2c1)CCCN3C(=O)CN1CCN(c2ncccn2)CC1,inconclusive
26,COc1ccccc1CNC(=O)c1nnc(Cc2ccc(Cl)cc2)o1,inconclusive
27,OC(C#Cc1ccccn1)c1cccs1 (stereo not given),inconclusive
28,O=C1CCc2cc(S(=O)(=O)NC(Cc3ccccc3)C(=O)NC3CCCCC3)ccc2N1 (stereo not given),inconclusive

row,Structure (SMILES),inhibition
1,COC(=O)c1ccccc1NC(=O)CCNC(=O)Cn1cnc2ccccc2c1=O,inconclusive
2,CCOc1ccccc1NC(=O)CSc1nccn1-c1ccccc1,inactive: 28%
3,CCN1CCCC1CN=Cc1c(O)n(-c2ccccc2)c(=O)c2ccccc12 (stereo not given),inconclusive
4,CCN(CC)CCC(=O)NC(C)(C)Cc1ccc(O)cc1,inactive: 6%
5,COc1cccc(NC(=O)CSc2nc3n[nH]c(C)c3c(=N)n2-c2cccc(OC)c2)c1,inconclusive
6,COc1ccc(CCN(C)CCCC(C#N)(c2ccc(OC)c(OC)c2)C(C)C)cc1OC (stereo not given),inactive: -24.5%
7,Cc1ccc(-c2ccc(=O)n(CCC(=O)NCCN3CCCCC3C)n2)cc1 (stereo not given),inactive: -3%
8,CN(C(=O)c1coc(=O)c2ccccc12)c1ccc(F)cc1,inconclusive
9,Cc1cccc(N2CCN(C(=O)COc3cc(=O)n(C)c4ccccc34)CC2)c1C,inconclusive
10,Cn1nc(-c2ccc(Cl)cc2)c2cc(C(=O)NCc3ccco3)sc21,inconclusive
11,CCN1C(=O)/C(=C2/Sc3ccc(OC)cc3N2C)SC1=Nc1ccc(C(C)=O)cc1,inconclusive
12,CCc1ccc2[nH]c(=O)c(C(c3nnnn3CC3CCCO3)N3CCN4CCCC4C3)cc2c1 (stereo not given),inconclusive
13,CCOC(=O)C(C)Sc1nc2c([nH]c3ccccc32)c(=O)n1C (stereo not given),inconclusive
14,COc1ccc(N2CCN(CCCNS(=O)(=O)c3ccc4c(c3)oc(=O)n4C)CC2)cc1,inconclusive
15,CCCNC(=O)NC1C(NC(=O)NCCC)N(C)C(=O)N1C (stereo not given),inactive: -14.5%
16,COc1cc2c(C(=O)NCc3ccc4c(c3)OCO4)cn(C)c(=O)c2cc1OC,inconclusive
17,N#CC1=C(N)Oc2cc(O)ccc2C1C1CCCCC1 (stereo not given),"inactive: -8% [stronger effect = higher value, 100% = Mn2+-driven binding gain fully reversed, screened at 10 µM (by protocol)]"
18,CCN1CCN(Cc2ccc(NC(=O)Nc3ccccc3Cl)cc2)CC1,inconclusive
19,CCCc1[nH]nc2c1C(CCc1ccccc1)C(C#N)=C(N)O2 (stereo not given),active: 61%
20,CCOC(=O)C1CCN(S(=O)(=O)c2ccc3[nH]c(=O)oc3c2)CC1,inconclusive
21,CCCc1cc(C(=O)Nc2ccc(C(C)=O)cc2)no1,inactive: 8%
22,Nc1nc(SCC(=O)N2CCCc3ccccc32)n(-c2ccccc2)n1,inactive: 2%
23,Cc1ccc(-c2nc(CS(=O)CC(=O)NC3CCCC3)c(C)o2)cc1 (stereo not given),"inactive: -15% [stronger effect = higher value, 100% = Mn2+-driven binding gain fully reversed, screened at 10 µM (by protocol)]"
24,CCCCOc1ccc(-c2nnn(CC(=O)Nc3ncc(CC(=O)OCC)s3)n2)cc1,active: 93.5%
25,COc1ccc(Cl)cc1NC(=O)C1CCCN(S(=O)(=O)c2cccc3nonc23)C1 (stereo not given),inconclusive
26,Cc1nc2ccc(S(=O)(=O)NC(C(=O)N3CCCCCC3)C(C)C)cc2s1 (stereo not given),inconclusive
27,O=C(NCc1ccccn1)C1CCN(S(=O)(=O)c2cnc[nH]2)CC1,inconclusive

# Some of the entries above, set out differently.
row	Structure (SMILES)	inhibition
9	Cc1cccc(N2CCN(C(=O)COc3cc(=O)n(C)c4ccccc34)CC2)c1C	inconclusive
10	Cn1nc(-c2ccc(Cl)cc2)c2cc(C(=O)NCc3ccco3)sc21	inconclusive
